# Data from patent publication US20230049350A1, “COMPOUNDS FOR TREATING BRAIN CANCER” (Purdue Pharmaceutical Products L.P., priority 2014, published 2023).
# At least one compound was matched to its structure with a doubt left.
# Test system: U251-luciferase
# Assay: Orthotopic model of U251-luciferase transfected cells
# Design: species or system mice
# Details: mouse, in vivo
# Experimental: Mice isotopically transfected with U251-luciferase in accordance with the procedure of Example 3 were treated with radiotherapy (2 Gy for 5 consecutive days), temozolomide (16 mg/kg for 5 consecutive days, po), radiotherapy and temozolomide (2 Gy for 5 consecutive days and 16 mg/kg for 5 consecutive days, po), EDO-S101 (60 mg/kg, intravenously at days 1, 8 and 15 of the treatment cycle) or control vehicle.
# Intracranial tumour growth was monitored with the […] imaging system (Caliper Life Sciences, Hopkinton, MA, USA). Mice were anesthetized with 2% to 4% isofluorane (Baxter, Deerfield, IL, USA) followed by intraperitoneal injections of 150 mg/kg d-luciferin (In Vivo Imaging Solutions). Five animals were measured at the same time and the luminescent camera was set to 1 minute exposure, medium binning, 1 f/stop, blocked excitation filter, and open emission filter. The photographic camera was set to 2 s exposure, medium binning, and 8 f/stop. The field of view was set to 22 cm to capture five mice at once. Serial images were taken on a weekly basis using identical settings. Bioluminescence intensity was quantified using the Living Image software (Caliper Life Sciences).
# Before any irradiation mice were anesthetized with a mixture of ketamine (25 mg/ml)/xylazine (5 mg/ml). Anesthetized tumour-bearing mice received a focal irradiation at the dose of 2 Gy for 5 consecutive days. […]
compound,measurement,value
Cn1nnc2c(C(N)=O)ncn2c1=O [temozolomide],overall survival probability versus EDO-S101 alone,higher
